Experimental data: the supplement of paper PMC10398353
Where a name gives a salt, the structure may show the parent alone. ± gives the standard deviation of the averaged measurements. Some of the results follow. The data scatter; read single values as rough.

These molecules were tested on Salmonella enterica serovar Typhimurium ST313 D23580 (assay: normalized bacterial growth (OD600 20 h minus 0 h, interquartile-mean normalized) (fraction of plate interquartile mean); higher = more bacterial growth (less inhibition)). Settings: LPM (pH 5.8, low phosphate, low Mg2+), concentration: 10 µM, temperature: 37 °C.
Work on CC1=C(/C=C/C(C)=C/C=C/C(C)=C/C(=O)Nc2ccc(O)cc2)C(C)(C)CCC1 [Retinoic acid p-hydroxyanilide] yielded a normalized bacterial growth of 0.702. CCC(=O)O[C@H]1[C@H](O[C@@H]2[C@@H](C)[C@H](O[C@H]3C[C@@](C)(OC)[C@@H](O)[C@H](C)O3)[C@@H](C)C(=O)O[C@H](CC)[C@@](C)(O)[C@H](O)[C@@H](C)C(=O)[C@H](C)C[C@@]2(C)O)O[C@H](C)C[C@@H]1N(C)C was tested, and the normalized bacterial growth was 0.946. In the case of Nc1ncnc2c1ncn2[C@@H]1O[C@H](COP(=O)(O)O)[C@@H](O)[C@H]1O, the normalized bacterial growth is reported as 0.264. O=C(O)c1cc(O)c2c(c1)[C@H]([C@H]1c3cc(C(=O)O)cc(O)c3C(=O)c3c(O[C@@H]4O[C@H](CO)[C@@H](O)[C@H](O)[C@H]4O)cccc31)c1cccc(O[C@@H]3O[C@H](CO)[C@@H](O)[C@H](O)[C@H]3O)c1C2=O gave a normalized bacterial growth of 0.849. With CC(=O)Oc1cc(C(C)C)c(OCCN(C)C)cc1C [Moxisylyte hydrochloride] the normalized bacterial growth was 0.95. Molecule CC(c1cc2ccccc2s1)N(O)C(N)=O (stereo not given) has a normalized bacterial growth of 1.04. Work on C[C@@H]1C(=O)O[C@H]2C[C@@]34[C@H]5C[C@@H](C(C)(C)C)[C@]36[C@@H](OC(=O)[C@@H]6O)O[C@@]4(C(=O)O5)[C@]21O yielded a normalized bacterial growth of 0.967 ± 0.011. Molecule C[C@@H]1C(=O)O[C@H]2C[C@@]34[C@H]5C[C@@H](C(C)(C)C)[C@]36[C@@H](OC(=O)[C@@H]6O)O[C@@]4(C(=O)O5)[C@]21O [Ginkgolide A] has a normalized bacterial growth of 1.17. In the case of C[n+]1cccc(C(=O)[O-])c1, the normalized bacterial growth is reported as 0.954 ± 0.11. NS(=O)(=O)c1cc2c(cc1Cl)NCNS2(=O)=O [Hydrochlorothiazide] showed a normalized bacterial growth of 1.21. CC(=O)O[C@H]1CC[C@]2(C)[C@H]3CC=C4[C@@H]5CC(C)(C)CC[C@]5(C)CC[C@@]4(C)[C@]3(C)CC[C@H]2C1(C)C [beta-AMYRIN ACETATE] gave a normalized bacterial growth of 0.768. C[N+]1(C)CCC(=C(c2ccccc2)c2ccccc2)CC1 [Diphemanil methylsulfate] was tested, and the normalized bacterial growth was 0.973. COc1cc(/C=C/C(=O)O)ccc1O showed a normalized bacterial growth of 1.15. Molecule CN(C)CCc1c[nH]c2ccc(C[C@H]3COC(=O)N3)cc12 has a normalized bacterial growth of 1.05. With CN(C)CCC=C1c2ccccc2C=Cc2ccccc21 [Cyclobenzaprine hydrochloride] the normalized bacterial growth was 0.916. In the case of O=C1c2cccc(O)c2C(=O)c2c(O)cc(CO)cc21, the normalized bacterial growth is reported as 1.07. With O=c1[nH]c(=O)n([C@H]2C[C@H](O)[C@@H](CO)O2)cc1F the normalized bacterial growth was 0.0905. C[C@H]1C[C@H]2[C@@H]3CCC4=CC(=O)C=C[C@]4(C)[C@@]3(Cl)[C@@H](O)C[C@]2(C)[C@@]1(O)C(=O)CO [Beclomethasone] showed a normalized bacterial growth of 0.899. Oc1ccc(O)cc1 [Hydroquinone] showed a normalized bacterial growth of 0.976. With COc1cc2nc(N3CCN(C(=O)C4CCCO4)CC3)nc(N)c2cc1OC (stereo not given) [Terazosin hydrochloride] the normalized bacterial growth was 1.06. CC1CCC(NC(=O)N(CCCl)N=O)CC1 (stereo not given) gave a normalized bacterial growth of 0.974. CC1=C2C(O)C(=O)OC3CC4C(C)(C)C(=O)C=C[C@]4(C)C(CC1)[C@]23C (stereo not given in full) was tested, and the normalized bacterial growth was 1.03. Cc1nc(N=Nc2ccc(C(=O)O)cc2)c(COP(=O)(O)O)c(C=O)c1O showed a normalized bacterial growth of 1.17. Molecule CCCc1cc(OC)c2c(c1)OCO2 has a normalized bacterial growth of 0.879. CC(C)(O)CC[C@@H](O)[C@](C)(O)[C@H]1CC[C@@]2(O)C3=CC(=O)[C@@H]4C[C@@H](O)[C@@H](O)C[C@]4(C)[C@H]3CC[C@]12C gave a normalized bacterial growth of 1.07. Nc1ccc(S(=O)(=O)Nc2ccc(Cl)nn2)cc1 was tested, and the normalized bacterial growth was 1.22. COC1=C(O)C(=O)c2c(cc3oc(C(C)=O)c(O)c3c2O)C1=O showed a normalized bacterial growth of 1.1. Work on COc1cc(O)c(C(C)=O)c(OC)c1 yielded a normalized bacterial growth of 1.34. Work on O=C1c2c(O)cc(O)cc2OC(c2ccc(O)c(O)c2)C1O (stereo not given) [()-Taxifolin] yielded a normalized bacterial growth of 1.12. With O=C1c2c(O)cc(O)cc2OC(c2ccc(O)c(O)c2)C1O (stereo not given) the normalized bacterial growth was 0.975. Molecule CN(C)CCCOc1nn(Cc2ccccc2)c2ccccc12 has a normalized bacterial growth of 0.759. In the case of CCCCCCCCCCCCCc1ccco1, the normalized bacterial growth is reported as 1.02. O=c1c(O)c(-c2ccccc2O)oc2cc(O)cc(O)c12 gave a normalized bacterial growth of 1.35. Molecule Cn1cc(C(=O)OCC2CCN(CCNS(C)(=O)=O)CC2)c2ccccc21 has a normalized bacterial growth of 1.01. OC[C@@H](O)[C@@H](O)[C@H](O)[C@@H](O)CO gave a normalized bacterial growth of 0.856. In the case of CCCCC(=O)O[C@]1(C(=O)CO)[C@@H](C)C[C@H]2[C@@H]3CCC4=CC(=O)C=C[C@]4(C)[C@@]3(F)[C@@H](O)C[C@@]21C, the normalized bacterial growth is reported as 0.782. For CNCC[C@H](Oc1ccc(C(F)(F)F)cc1)c1ccccc1 [S-(+)-Fluoxetine hydrochloride], the normalized bacterial growth was 1.18. Work on COc1cc(C(=O)N2CCOCC2)cc(OC)c1OC yielded a normalized bacterial growth of 1.32. For CC(=O)OCC(=O)[C@@]1(O)CC[C@H]2[C@@H]3CCC4=CC(=O)CC[C@]4(C)[C@H]3C(=O)C[C@@]21C, the normalized bacterial growth was 1.22. In the case of CC(=O)OCC(=O)[C@@]1(O)CC[C@H]2[C@@H]3CCC4=CC(=O)CC[C@]4(C)[C@H]3C(=O)C[C@@]21C [Cortisone 21-acetate], the normalized bacterial growth is reported as 1.13. CC(=O)OCC(=O)[C@@]1(O)CC[C@H]2[C@@H]3CCC4=CC(=O)C=C[C@]4(C)[C@@]3(F)[C@@H](O)C[C@@]21C [Isoflupredone acetate] gave a normalized bacterial growth of 1.07. Molecule COc1c2occc2cc2ccc(=O)oc12 has a normalized bacterial growth of 0.973. Work on N=C(NCCCCCCNC(=N)NC(=N)Nc1ccc(Cl)cc1)NC(=N)Nc1ccc(Cl)cc1 yielded a normalized bacterial growth of 0.849. In the case of N=C(NCCCCCCNC(=N)NC(=N)Nc1ccc(Cl)cc1)NC(=N)Nc1ccc(Cl)cc1 [Chlorhexidine], the normalized bacterial growth is reported as 1.05. For NCc1ccccc1CC(=O)N[C@@H]1C(=O)N2C(C(=O)O)=C(CSc3nnnn3CC(=O)O)CS[C@H]12 [Ceforanide], the normalized bacterial growth was 0.95. Work on CN1CCN(C2=Nc3ccccc3Oc3ccc(Cl)cc32)CC1 [Loxapine succinate] yielded a normalized bacterial growth of 0.882. COC(=O)c1cc(O)c(=O)c2c(O)c(O)ccc2c1 gave a normalized bacterial growth of 0.911. C[N+]1(C)CCC(OC(=O)C(O)(c2ccccc2)C2CCCC2)C1 (stereo not given) showed a normalized bacterial growth of 1.1. Work on CCCCCCCCCCCCCCCCCCOCC(O)CO (stereo not given) yielded a normalized bacterial growth of 1.28. With C[C@@H]1C[C@H]2O[C@@H]2/C=C\C=C\C(=O)Cc2c(Cl)c(O)cc(O)c2C(=O)O1 the normalized bacterial growth was 1.24. Clc1ccc(CCC(Cn2ccnc2)Sc2c(Cl)cccc2Cl)cc1 (stereo not given) [Butoconazole nitrate] was tested, and the normalized bacterial growth was 0.675. Work on CCCCCc1c2c(cc(O)c1C(=O)O)OC(=O)c1c(cc(OC)cc1C(=O)CCCC)O2 yielded a normalized bacterial growth of 0.777. COC1=C[C@@H](C)[C@@H]2C[C@H]3OC(=O)C[C@H]4C(C)=C(OC)C(=O)[C@H]([C@@]2(C)C1=O)[C@@]34C gave a normalized bacterial growth of 0.984 ± 0.082. C[C@@H]1C[C@H]2[C@@H]3C[C@H](F)C4=CC(=O)C=C[C@]4(C)[C@@]3(F)[C@@H](O)C[C@]2(C)[C@@]1(O)C(=O)CO [Flumethasone] gave a normalized bacterial growth of 1.23. With O=C(O)Cc1ccc(-c2ccccc2)cc1 [Felbinac] the normalized bacterial growth was 1.18. Work on O=C(O)c1cn(-c2ccc(F)cc2)c2cc(N3CCNCC3)c(F)cc2c1=O yielded a normalized bacterial growth of 0.126. With CC[C@H](/C=C/[C@@H](C)[C@H]1CC[C@H]2[C@@H]3CC=C4C[C@@H](O)CC[C@]4(C)[C@H]3CC[C@]12C)C(C)C the normalized bacterial growth was 0.87. Work on NCCC[C@](N)(C(=O)O)C(F)F (racemic) [DL-alpha-Difluoromethylornithine hydrochloride] yielded a normalized bacterial growth of 0.905. CC(=O)OCC(=O)[C@@]1(O)[C@@H](C)C[C@H]2[C@@H]3CCC4=CC(=O)C=C[C@]4(C)[C@@]3(F)[C@@H](O)C[C@@]21C was tested, and the normalized bacterial growth was 0.795. CC(=O)Oc1ccc2c(c1OC(C)=O)OCC1(O)Cc3c(cc(OC(C)=O)c(OC(C)=O)c3OC(C)=O)C21 (stereo not given) was tested, and the normalized bacterial growth was 0.806. Work on O=C1c2c(O)cccc2Cc2cccc(O)c21 yielded a normalized bacterial growth of 0.818. C#CC(N)CCC(=O)O (stereo not given) [gamma-Acetylinic GABA] gave a normalized bacterial growth of 1.16. O=S(=O)(O)c1cc(N=C=S)ccc1/C=C/c1ccc(N=C=S)cc1S(=O)(=O)O was tested, and the normalized bacterial growth was 0.828. Molecule COc1cc([C@@H]2CC(=O)c3c(O)cc(O)cc3O2)ccc1O has a normalized bacterial growth of 1.08. With COc1ccc2c(c1)CCC1C2CCC2(C)C(NCCCCCCN3C(=O)C=CC3=O)CCC12 (stereo not given) the normalized bacterial growth was 0.86. O=C1C[C@@H](c2ccccc2)Oc2cc(O)cc(O)c21 showed a normalized bacterial growth of 0.968. Molecule COC(=O)C1=C(C)NC(C)=C([N+](=O)[O-])C1c1ccccc1C(F)(F)F (stereo not given) has a normalized bacterial growth of 1. Work on COc1cc(C(=O)OCCCN2CCCN(CCCOC(=O)c3cc(OC)c(OC)c(OC)c3)CC2)cc(OC)c1OC [Dilazep hydrochloride] yielded a normalized bacterial growth of 0.913. Work on COc1cc(C(=O)OCCCN2CCCN(CCCOC(=O)c3cc(OC)c(OC)c(OC)c3)CC2)cc(OC)c1OC [Dilazep dihydrochloride] yielded a normalized bacterial growth of 0.986. N=C(NC(=O)c1nc(Cl)c(N)nc1N)Nc1ccccc1 [Phenamil methanesulfonate] showed a normalized bacterial growth of 0.717. With CC[N+](C)(CC)CCOC(=O)C(O)(c1ccccc1)C1CCCCC1 (stereo not given) the normalized bacterial growth was 0.919. In the case of CN(C)CCCN1c2ccccc2Sc2ccc(C(F)(F)F)cc21 [Triflupromazine hydrochloride], the normalized bacterial growth is reported as 0.768. C[N+]1(C)CCC(OC(=O)C(c2ccccc2)c2ccccc2)CC1 [4-DAMP methiodide] was tested, and the normalized bacterial growth was 0.969. COc1cc(C(=O)O[C@H]2C[C@@H]3CC[C@]2(C)C3(C)C)ccc1O showed a normalized bacterial growth of 0.475. Oc1cc(O)c2c(c1)O[C@H](c1ccc(O)c(O)c1)[C@@H](O)C2 [(+)-Catechin Hydrate] showed a normalized bacterial growth of 1.23. For Cc1[nH]ccc2c1[nH]c1cc(=O)ccc12, the normalized bacterial growth was 0.889. With Cc1[nH]ccc2c1[nH]c1cc(=O)ccc12 [Harmol hydrochloride monohydrate] the normalized bacterial growth was 1.09. With CCN(CC)CCOC(=O)C1(C2CCCCC2)CCCCC1 [Dicyclomine hydrochloride] the normalized bacterial growth was 0.838. With O=c1cc(-c2ccccc2)oc2c(O)c(O)ccc12 the normalized bacterial growth was 0.836. Molecule CC(N/C(=N\C#N)Nc1ccncc1)C(C)(C)C (stereo not given) [Pinacidil] has a normalized bacterial growth of 1.06 ± 0.13.
